According to the supplement of paper PMC11348887:
Counter-ions that a name gives are not always drawn. The list shows a part of the results. Small differences around the control level are noise.

Key:
Settings in all cases: 5 µM; treatment: days 7-14 after plating, readout day 21
[1] = tested on: hPSC-derived cortical neurons (WA09); assay: nucleus area z-score vs screen plate; higher = larger nuclei (more mature)
[2] = tested on: hPSC-derived cortical neurons (WA09); assay: total neurite length per nucleus (MAP2) z-score; higher = more neurite growth
[3] = tested on: hPSC-derived cortical neurons (WA09); assay: nucleus roundness z-score vs screen plate; higher = rounder nuclei (more mature)
[4] = tested on: hPSC-derived cortical neurons (WA09); assay: KCl-induced FOS+/EGR-1+ double-positive nuclei fraction z-score (KCl minus unstimulated); higher = stronger activity-induced IEG response

Row | SMILES | nucleus area z-score [1] | total neurite length per nucleus (z-score) [2] | nucleus roundness z-score [3] | KCl-induced FOS+/EGR-1+ double-positive nuclei fraction z-score [4]
1 | NCC[C@H](O)C(=O)N[C@@H]1C[C@H](N)[C@@H](O[C@H]2O[C@H](CN)[C@@H](O)[C@H](O)[C@H]2O)[C@H](O)[C@H]1O[C@H]1O[C@H](CO)[C@@H](O)[C@H](N)[C@H]1O [Amikacin disulfate] | -0.959 | 0.646 | 0.992 | 5.09
2 | Cc1cn([C@@H]2C[C@@H](O)[C@H](CO)O2)c(=O)[nH]c1=O [Telbivudine] | 0.801 | -0.419 | -0.161 | 0.171
3 | N#Cc1c(NC(=O)c2cccc3ccccc23)sc2c1CCCC2 [JNK Inhibitor IX] | -0.512 | 0.26 | 0.496 | -0.396
4 | C=C(c1ccc(C(=O)O)cc1)c1cc2c(cc1C)C(C)(C)CCC2(C)C [Bexarotene] | 1.13 | -0.945 | -1.95 | 0.122
5 | NC(=O)c1ccc(N(C(N)=O)c2c(F)cccc2F)nc1-c1ccc(F)cc1F | 0.588 | 0.484 | 0.882 | 1.79
6 | C[C@@H](CN1CC(=O)NC(=O)C1)N1CC(=O)NC(=O)C1 [Dexrazoxane HCl (ICRF-187_ ADR-529)] | 0.63 | 0.175 | -0.395 | 0.396
7 | CO/N=C(\C(=O)N[C@@H]1C(=O)N2C(C(=O)O)=C(COC(N)=O)CS[C@H]12)c1ccco1 [Cefuroxime sodium] | 0.549 | 0.934 | 0.801 | 1.35
8 | Cc1c(N(C)C)c(=O)n(-c2ccccc2)n1C [Amidopyrine] | 0.429 | 0.146 | 0.416 | 1.43
9 | COC(=O)N[C@H](C(=O)N[C@@H](Cc1ccccc1)[C@@H](O)CN(Cc1ccc(-c2ccccn2)cc1)NC(=O)[C@@H](NC(=O)OC)C(C)(C)C)C(C)(C)C [Atazanavir Sulfate] | 0.833 | 0.647 | -0.233 | 0.675
10 | COc1cc([C@@H]2c3cc4c(cc3[C@@H](O[C@@H]3O[C@@H]5CO[C@@H](c6cccs6)O[C@H]5[C@H](O)[C@H]3O)[C@H]3COC(=O)[C@H]23)OCO4)cc(OC)c1O [Teniposide] | -5.39 | -0.512 | -0.0678 | -1.9
11 | N#CN=C(NCCCCCCOc1ccc(Cl)cc1)Nc1ccncc1 | -20.2 | -6.97 | -9.75 | -2.23
12 | CC(=O)NS(=O)(=O)c1ccc(N)cc1 [Sulfacetamide Sodium] | 1.45 | -0.095 | 0.316 | 0.726
13 | Clc1ccc(C(Cn2ccnc2)OCc2ccc(Sc3ccccc3)cc2)c(Cl)c1 (centres undefined) [Fenticonazole Nitrate] | -2.17 | -1.52 | -1.52 | 0.858
14 | O=S(=O)(O)NC1CCCCC1 [Cyclamic  acid] | 1.43 | -0.963 | -1.96 | -1.3
15 | Nc1ccc(/N=N/c2ccccc2)c(N)n1 [Phenazopyridine HCl] | 0.0555 | -0.145 | 0.398 | 1.17
16 | CN1CCN(c2ccc(Nc3cc(-c4cccc(-n5ccc6cc(C7CC7)cc(F)c6c5=O)c4CO)cn(C)c3=O)nc2)CC1 | -2.26 | -0.435 | -1.15 | -0.204
17 | COc1ccc(CNCc2cccc3ccccc23)cc1 | -0.349 | -0.355 | 0.178 | 0.947
18 | OC[C@H]1O[C@@H](Oc2ccc(O)cc2)[C@H](O)[C@@H](O)[C@@H]1O [Arbutin] | -0.182 | 0.146 | 0.249 | -0.334
19 | O=C(O)C1(C(=O)O)CCC1.[NH2-].[NH2-].[Pt+2] [Carboplatin] | -0.0278 | -0.0195 | -0.133 | -0.553
20 | CC[C@@]1(O)C(=O)OCc2c1cc1n(c2=O)Cc2cc3c(CN(C)C)c(O)ccc3nc2-1 [Topotecan HCl] | -0.468 | -1.02 | -1.08 | -0.133
21 | Cc1cc(Nc2ncc(Cl)c(Nc3ccccc3S(=O)(=O)C(C)C)n2)c(OC(C)C)cc1C1CCNCC1 | -16.1 | -4.56 | -2.94 | -0.894
22 | c1cc(CN2CCCNCCNCCCNCC2)ccc1CN1CCCNCCNCCCNCC1 [Plerixafor 8HCl (AMD3100 8HCl)] | 1.61 | 0.735 | 0.122 | 0.619
23 | Oc1c(I)cc(I)c2cccnc12 [Diiodohydroxyquinoline] | 0.458 | 1.57 | 0.539 | 2.39
24 | COc1ccc(-c2cc(=O)c3c(OC)c(OC)c(OC)c(OC)c3o2)cc1OC [Nobiletin] | -1.39 | -1.35 | -0.94 | -0.695
25 | NC(=O)Nc1cc(-c2cccc(F)c2)sc1C(=O)N[C@H]1CCCNC1 | -0.132 | 2.13 | 0.949 | -1.26
26 | COc1ccc2[nH]cc(/C=C3\C(=O)Nc4ccc(NC(=O)CCN5CCCCC5)cc43)c2c1 | -0.782 | -0.00394 | -0.359 | -0.393

Two entries from above in another layout.
Row,SMILES,nucleus area z-score [1],total neurite length per nucleus (z-score) [2],nucleus roundness z-score [3],KCl-induced FOS+/EGR-1+ double-positive nuclei fraction z-score [4]
3,N#Cc1c(NC(=O)c2cccc3ccccc23)sc2c1CCCC2 [JNK Inhibitor IX],-0.512,0.26,0.496,-0.396
4,C=C(c1ccc(C(=O)O)cc1)c1cc2c(cc1C)C(C)(C)CCC2(C)C [Bexarotene],1.13,-0.945,-1.95,0.122
